Article PMC7955084
Results are given in words; binding and its absence hold for the method and conditions named.

What was measured:
[1] = target: human MCM10 internal domain lacking the N-terminal 27 residues (ΔN27 hMCM10-ID), residues 263-435 (human) (UniProt Q7L590); test: SEC; analytical size-exclusion chromatography, Superdex 75 Increase 10/300 GL; 200 µL at 5 mg ml^−1 injected; 20 mM Tris-HCl pH 7.4, 500 mM NaCl, 5 mM β-mercaptoethanol; 0.4 mL min^−1; 4 °C; calibrated with molecular weight standards; both purified
[2] = target: human MCM10 internal domain (hMCM10-ID), wild type, residues 236-435 (human) (UniProt Q7L590); test: as above

Row | binding [1] | binding [2] | Binder
1 | no binding (tested: 5 mg ml^−1) |  | human MCM10 internal domain lacking the N-terminal 27 residues (ΔN27 hMCM10-ID), residues 263-435 (domain or fragment, UniProt Q7L590-2 263-435) GPEMNKKMTGRKLIRLSQIKEKMAREKLEEIDWVTFGVILKKVTPQSVNSGKTFSIWKLNDLRDLTQCVSLFLFGEVHKALWKTEQGTVVGILNANPMKPKDGSEEVCLSIDHPQKVLIMGEALDLGTCKAKKKNGEPCTQTVNLRDCEYCQYHVQAQYKKLSAKRADLQSTFSG
2 |  | no binding (tested: 5 mg ml^−1) | human MCM10 internal domain (hMCM10-ID), wild type, residues 236-435 (domain or fragment, UniProt Q7L590-2 236-435) GPSSGETTQPICVEAFSGLRLRRPRVSSTEMNKKMTGRKLIRLSQIKEKMAREKLEEIDWVTFGVILKKVTPQSVNSGKTFSIWKLNDLRDLTQCVSLFLFGEVHKALWKTEQGTVVGILNANPMKPKDGSEEVCLSIDHPQKVLIMGEALDLGTCKAKKKNGEPCTQTVNLRDCEYCQYHVQAQYKKLSAKRADLQSTFSG
